Values of other authors, collected in patent US9199026B2, “Modular extracorporeal systems and methods for treating blood-borne diseases” (SOMERSET GROUP ENTERPRISES, INC., priority 2011, dated 2015).
For at least one compound, name, drawing or mass did not settle the structure.

Tested on: bacteria
Details: for Spectrum: first line of the cell pair 'Spectrum, activity'; for activity (bactericidal / static): second line of the cell pair 'Spectrum

| SMILES | Spectrum | activity (bactericidal / static) |
| --- | --- | --- |
| C[C@H]1COc2c(N3CCN(C)CC3)c(F)cc3c(=O)c(C(=O)O)cn1c23 [Levofloxacin] | Broad, | bactericidal |
| CN(C)c1ccc(O)c2c1C[C@H]1C[C@H]3[C@H](N(C)C)C(O)=C(C(N)=O)C(=O)[C@@]3(O)C(O)=C1C2=O [Minecycline] | Broad, | static |
| COc1c(N2C[C@@H]3CCCN[C@@H]3C2)c(F)cc2c(=O)c(C(=O)O)cn(C3CC3)c12 [Moxifloxacin] | Broad, | bactericidal |
